Laboratory results as given in PMC5983848.
No constants are given. Whether binding was seen depends on the method and setting. Binding seen in cells or lysates may run through a third protein. These calls come from enrichment with a bait or labelling near it, and not all partners need be listed.

The chains behind the UniProt entries cited, without tags or fusion partners. Where a name states a change or a piece, a line headed by the entry shows the natural chain unless it says otherwise.
UniProt P43354: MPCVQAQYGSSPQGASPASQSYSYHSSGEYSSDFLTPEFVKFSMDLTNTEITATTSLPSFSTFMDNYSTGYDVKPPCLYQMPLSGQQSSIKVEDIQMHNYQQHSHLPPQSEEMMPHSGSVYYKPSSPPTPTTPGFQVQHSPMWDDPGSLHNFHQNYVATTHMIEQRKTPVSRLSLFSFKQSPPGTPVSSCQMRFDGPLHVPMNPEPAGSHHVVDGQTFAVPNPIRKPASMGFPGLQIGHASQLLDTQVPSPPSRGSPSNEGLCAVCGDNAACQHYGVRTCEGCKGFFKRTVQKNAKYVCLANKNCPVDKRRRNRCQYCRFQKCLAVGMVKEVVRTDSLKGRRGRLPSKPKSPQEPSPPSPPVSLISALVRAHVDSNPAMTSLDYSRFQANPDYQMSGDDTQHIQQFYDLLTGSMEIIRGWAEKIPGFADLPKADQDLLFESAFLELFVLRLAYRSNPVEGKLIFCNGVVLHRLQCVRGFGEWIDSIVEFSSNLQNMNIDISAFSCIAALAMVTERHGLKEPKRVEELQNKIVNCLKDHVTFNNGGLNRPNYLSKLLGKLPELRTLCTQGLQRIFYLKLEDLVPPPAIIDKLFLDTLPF
UniProt P51532: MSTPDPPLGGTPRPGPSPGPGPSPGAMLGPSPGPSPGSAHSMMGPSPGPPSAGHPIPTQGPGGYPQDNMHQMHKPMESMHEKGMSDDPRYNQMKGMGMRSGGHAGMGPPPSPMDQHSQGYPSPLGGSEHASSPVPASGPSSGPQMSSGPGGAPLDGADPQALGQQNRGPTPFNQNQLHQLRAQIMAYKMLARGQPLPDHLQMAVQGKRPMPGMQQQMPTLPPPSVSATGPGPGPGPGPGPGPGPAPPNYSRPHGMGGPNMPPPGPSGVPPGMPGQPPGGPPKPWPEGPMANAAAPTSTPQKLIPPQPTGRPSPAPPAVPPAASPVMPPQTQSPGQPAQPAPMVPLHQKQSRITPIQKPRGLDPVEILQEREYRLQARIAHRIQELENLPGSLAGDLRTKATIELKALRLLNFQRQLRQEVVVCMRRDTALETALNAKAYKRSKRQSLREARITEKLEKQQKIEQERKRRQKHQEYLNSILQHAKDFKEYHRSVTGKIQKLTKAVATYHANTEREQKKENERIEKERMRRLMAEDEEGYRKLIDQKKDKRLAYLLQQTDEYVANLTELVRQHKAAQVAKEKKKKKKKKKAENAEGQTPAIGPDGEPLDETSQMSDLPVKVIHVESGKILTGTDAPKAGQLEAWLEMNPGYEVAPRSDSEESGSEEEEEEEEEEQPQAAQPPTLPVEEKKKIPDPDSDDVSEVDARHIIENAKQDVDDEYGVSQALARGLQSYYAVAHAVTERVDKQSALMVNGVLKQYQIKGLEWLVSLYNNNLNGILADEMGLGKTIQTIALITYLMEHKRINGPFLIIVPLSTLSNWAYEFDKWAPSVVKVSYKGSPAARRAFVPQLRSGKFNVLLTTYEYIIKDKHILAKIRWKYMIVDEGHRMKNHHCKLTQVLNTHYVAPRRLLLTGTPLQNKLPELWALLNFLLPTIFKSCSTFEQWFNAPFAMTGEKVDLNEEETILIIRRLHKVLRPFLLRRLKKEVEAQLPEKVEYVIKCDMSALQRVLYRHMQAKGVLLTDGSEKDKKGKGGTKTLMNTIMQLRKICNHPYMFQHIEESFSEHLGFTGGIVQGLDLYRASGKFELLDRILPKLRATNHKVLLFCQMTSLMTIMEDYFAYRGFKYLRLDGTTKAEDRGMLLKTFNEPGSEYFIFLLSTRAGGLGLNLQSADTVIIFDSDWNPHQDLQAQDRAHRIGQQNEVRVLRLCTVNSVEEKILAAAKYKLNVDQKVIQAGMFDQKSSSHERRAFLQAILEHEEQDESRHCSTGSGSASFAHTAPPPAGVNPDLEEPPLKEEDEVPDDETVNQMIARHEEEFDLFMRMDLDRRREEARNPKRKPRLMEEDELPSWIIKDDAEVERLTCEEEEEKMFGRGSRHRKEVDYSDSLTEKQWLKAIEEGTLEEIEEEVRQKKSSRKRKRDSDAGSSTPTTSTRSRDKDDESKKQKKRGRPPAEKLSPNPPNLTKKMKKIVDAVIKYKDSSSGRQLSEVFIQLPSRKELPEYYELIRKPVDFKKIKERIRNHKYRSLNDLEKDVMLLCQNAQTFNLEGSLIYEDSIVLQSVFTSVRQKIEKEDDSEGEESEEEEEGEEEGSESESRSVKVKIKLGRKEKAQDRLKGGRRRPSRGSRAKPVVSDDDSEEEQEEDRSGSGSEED
UniProt Q92570: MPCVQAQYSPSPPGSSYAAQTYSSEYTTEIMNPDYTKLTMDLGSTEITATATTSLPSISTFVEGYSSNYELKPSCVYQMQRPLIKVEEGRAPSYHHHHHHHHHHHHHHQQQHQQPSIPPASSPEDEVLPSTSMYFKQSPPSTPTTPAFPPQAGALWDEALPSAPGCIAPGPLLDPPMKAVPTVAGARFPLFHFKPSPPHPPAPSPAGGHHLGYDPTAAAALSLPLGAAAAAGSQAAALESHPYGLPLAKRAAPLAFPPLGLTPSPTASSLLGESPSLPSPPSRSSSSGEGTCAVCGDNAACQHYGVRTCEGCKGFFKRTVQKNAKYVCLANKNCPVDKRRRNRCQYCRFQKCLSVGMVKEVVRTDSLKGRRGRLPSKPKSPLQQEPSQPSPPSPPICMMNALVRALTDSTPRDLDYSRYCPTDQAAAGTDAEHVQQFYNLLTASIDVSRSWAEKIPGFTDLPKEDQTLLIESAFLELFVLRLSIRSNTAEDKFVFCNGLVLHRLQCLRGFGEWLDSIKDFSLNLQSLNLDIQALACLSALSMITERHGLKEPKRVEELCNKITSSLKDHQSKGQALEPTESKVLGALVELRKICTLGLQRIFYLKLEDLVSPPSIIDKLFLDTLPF
UniProt Q13263: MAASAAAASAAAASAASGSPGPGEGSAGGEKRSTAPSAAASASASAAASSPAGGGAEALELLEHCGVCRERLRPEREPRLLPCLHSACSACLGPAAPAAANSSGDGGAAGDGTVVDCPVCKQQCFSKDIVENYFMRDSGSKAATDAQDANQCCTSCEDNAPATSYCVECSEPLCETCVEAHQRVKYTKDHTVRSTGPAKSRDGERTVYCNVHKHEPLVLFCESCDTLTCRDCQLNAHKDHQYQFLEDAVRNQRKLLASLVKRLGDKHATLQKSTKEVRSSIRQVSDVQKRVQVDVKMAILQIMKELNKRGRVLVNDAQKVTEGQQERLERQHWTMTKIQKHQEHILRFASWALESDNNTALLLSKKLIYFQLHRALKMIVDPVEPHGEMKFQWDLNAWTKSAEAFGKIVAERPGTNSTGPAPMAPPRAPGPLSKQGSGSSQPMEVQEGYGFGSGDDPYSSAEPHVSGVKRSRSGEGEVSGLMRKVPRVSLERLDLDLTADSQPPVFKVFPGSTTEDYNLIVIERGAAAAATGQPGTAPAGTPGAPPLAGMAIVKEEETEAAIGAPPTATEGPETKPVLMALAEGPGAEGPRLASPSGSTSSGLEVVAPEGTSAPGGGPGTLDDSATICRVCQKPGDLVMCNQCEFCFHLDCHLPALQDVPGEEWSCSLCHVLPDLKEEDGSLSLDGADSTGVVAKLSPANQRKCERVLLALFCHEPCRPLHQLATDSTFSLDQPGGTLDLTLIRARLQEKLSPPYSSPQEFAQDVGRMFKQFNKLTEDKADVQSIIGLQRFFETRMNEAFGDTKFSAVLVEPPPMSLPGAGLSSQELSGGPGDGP
UniProt P09874: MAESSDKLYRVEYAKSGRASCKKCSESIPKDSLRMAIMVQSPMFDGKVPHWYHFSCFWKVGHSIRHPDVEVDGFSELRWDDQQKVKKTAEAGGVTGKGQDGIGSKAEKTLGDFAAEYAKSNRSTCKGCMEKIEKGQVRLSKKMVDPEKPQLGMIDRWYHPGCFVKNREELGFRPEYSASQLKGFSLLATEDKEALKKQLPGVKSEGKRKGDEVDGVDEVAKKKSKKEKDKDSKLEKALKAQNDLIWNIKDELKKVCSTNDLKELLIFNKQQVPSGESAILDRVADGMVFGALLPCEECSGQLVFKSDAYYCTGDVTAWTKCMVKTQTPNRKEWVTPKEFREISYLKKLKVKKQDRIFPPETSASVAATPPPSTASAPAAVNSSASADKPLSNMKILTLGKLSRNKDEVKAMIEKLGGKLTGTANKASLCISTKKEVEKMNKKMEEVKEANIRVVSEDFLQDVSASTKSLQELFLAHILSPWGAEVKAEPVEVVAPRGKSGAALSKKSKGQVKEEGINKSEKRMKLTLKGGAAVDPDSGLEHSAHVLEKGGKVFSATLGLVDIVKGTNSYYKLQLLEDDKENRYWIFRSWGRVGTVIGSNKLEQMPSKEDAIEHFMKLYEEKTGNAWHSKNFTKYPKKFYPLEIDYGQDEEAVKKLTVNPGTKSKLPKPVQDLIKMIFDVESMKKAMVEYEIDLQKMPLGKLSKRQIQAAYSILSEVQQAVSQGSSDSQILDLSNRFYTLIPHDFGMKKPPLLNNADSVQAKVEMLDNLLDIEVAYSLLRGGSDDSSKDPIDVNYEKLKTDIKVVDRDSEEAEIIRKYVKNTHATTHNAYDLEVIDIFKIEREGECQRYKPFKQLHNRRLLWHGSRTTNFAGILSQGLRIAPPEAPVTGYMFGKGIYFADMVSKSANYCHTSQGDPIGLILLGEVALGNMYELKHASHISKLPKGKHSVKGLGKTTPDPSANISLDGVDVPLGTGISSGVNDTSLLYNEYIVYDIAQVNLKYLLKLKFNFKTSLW

target: Nurr1 (NR4A2), endogenous in H295R cells (human (endogenous in H295R)) (UniProt P43354); assay: affinity purification with mass spectrometry; RIME: H295R cells stimulated with angiotensin II for 4 h, fixed with 1% formalin, endogenous Nurr1 immunoprecipitated with E-20 (anti-Nurr1/Nur77) or N-20 (anti-Nurr1) on dynabeads, washed with RIPA buffer, on-bead trypsin digest, LC-MS/MS; rabbit IgG as negative control

binding | Substance
binds | BRG-1, endogenous in H295R cells (from UniProt P51532 1-1647)
binds | NOR-1 (neuron-derived orphan receptor 1) (NR4A3), endogenous in H295R cells (from UniProt Q92570 1-626)
binds | TRIM28, endogenous in H295R cells (from UniProt Q13263 1-835)
binds | poly(ADP-ribose) polymerase 1 (PARP1), endogenous in H295R cells (from UniProt P09874 1-1014) (enzyme)
